Measured data: PubChem BioAssay AID1259308 (NCATS, 2017)
Aim: 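Candidate targets for better recombinant protein yield in mammalian cells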 (primary screen). System: human HEK293 embryonic kidney cells stably expressing firefly luciferase (HEK-CMV-Luc2-Hygro). Reagent: single siRNA against human genes, 0.8 pmol siRNA per well. Timing: 72 h. Measurement: 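Reporter luminescence and viable-cell signal on separate replicate plates, given as percent of non-targeting control and median/MAD z-scores, plus per-cell luciferase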. Direction: total luciferase, z-score and total luciferase, % of control: higher = more reporter protein produced; luciferase per cell, z-score: higher = more reporter output per viable cell; viable cells, % of control: higher = more viable cells. Call rule: 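Active when the median/MAD z-score for overall luciferase is greater than 3; a gene was taken forward for validation with new siRNAs if at least two of its three siRNAs passed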. Meaning of the calls: active = raised luciferase; inactive = no rise.
The deposit covers about 59,000 reagents; this is an unselected part. Over the whole deposit, about 1,510 (2.6%) are marked active. 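Calls use total luciferase alone and ignore viability, so some active siRNAs may act by altering cell number.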 The numbers tell different reagents against one gene apart. Reagent sequences are not shown.

| Target gene | siRNA no. | total luciferase, z-score | total luciferase, % of control | luciferase per cell, z-score | viable cells, % of control | Call |
| --- | --- | --- | --- | --- | --- | --- |
| SLC1A2 | 1 | -0.206 | 77.8 | 0.0258 | 86.3 | inactive |
| SLC1A2 | 2 | 1.35 | 109 | 0.825 | 97.8 | inactive |
| SLC1A2 | 3 | 2.38 | 129 | 1.51 | 96.9 | inactive |
| DERL3 (derlin 3) | 1 | -0.535 | 71.2 | -1.01 | 104 | inactive |
| DERL3 (derlin 3) | 2 | -2.2 | 38.1 | -1.35 | 60.7 | inactive |
| DERL3 (derlin 3) | 3 | 0.708 | 96 | 0.522 | 93.5 | inactive |
| CLEC7A (C-type lectin domain containing 7A) | 1 | -1.31 | 55.8 | -0.265 | 66.9 | inactive |
| CLEC7A (C-type lectin domain containing 7A) | 2 | 0.356 | 89 | -0.0742 | 101 | inactive |
| CLEC7A (C-type lectin domain containing 7A) | 3 | 0.155 | 85 | -0.461 | 107 | inactive |
| RRM1 (ribonucleotide reductase catalytic subunit M1) | 1 | -0.52 | 71.5 | 1.34 | 56.1 | inactive |
| RRM1 (ribonucleotide reductase catalytic subunit M1) | 2 | 0.147 | 84.8 | 2.3 | 51.7 | inactive |
| RRM1 (ribonucleotide reductase catalytic subunit M1) | 3 | -1.42 | 53.6 | 1.81 | 37.2 | inactive |
| RCOR1 (REST corepressor 1) | 1 | -1.01 | 61.9 | 0.242 | 64.9 | inactive |
| RCOR1 (REST corepressor 1) | 2 | -1.2 | 58 | -1.43 | 94.3 | inactive |
| RCOR1 (REST corepressor 1) | 3 | 1.65 | 115 | 1.7 | 82 | inactive |
| CHPF (chondroitin polymerizing factor) | 1 | 0.985 | 101 | 1.52 | 76 | inactive |
| CHPF (chondroitin polymerizing factor) | 2 | -1.66 | 48.9 | -1.13 | 73.6 | inactive |
| CHPF (chondroitin polymerizing factor) | 3 | -1.81 | 46 | -1.93 | 85.5 | inactive |
| SAPCD2 (suppressor APC domain containing 2) | 1 | -1.91 | 43.8 | -1.9 | 80.7 | inactive |
| SAPCD2 (suppressor APC domain containing 2) | 2 | -3.05 | 21.3 | -1.88 | 39.1 | inactive |
| SAPCD2 (suppressor APC domain containing 2) | 3 | 0.357 | 89 | 0.344 | 90.8 | inactive |
| TMEM156 (transmembrane protein 156) | 1 | 0.446 | 90.7 | -0.149 | 105 | inactive |
| TMEM156 (transmembrane protein 156) | 2 | -0.219 | 77.5 | -0.665 | 103 | inactive |
| TMEM156 (transmembrane protein 156) | 3 | 0.259 | 87 | -0.746 | 118 | inactive |

Only “total luciferase, z-score” (10 entries from above):
CLEC7A (C-type lectin domain containing 7A) #3	0.155
RRM1 (ribonucleotide reductase catalytic subunit M1) #1	-0.52
RRM1 (ribonucleotide reductase catalytic subunit M1) #2	0.147
RRM1 (ribonucleotide reductase catalytic subunit M1) #3	-1.42
RCOR1 (REST corepressor 1) #1	-1.01
RCOR1 (REST corepressor 1) #2	-1.2
RCOR1 (REST corepressor 1) #3	1.65
CHPF (chondroitin polymerizing factor) #1	0.985
CHPF (chondroitin polymerizing factor) #2	-1.66
CHPF (chondroitin polymerizing factor) #3	-1.81

Continued:
| Target gene | siRNA no. | total luciferase, z-score | total luciferase, % of control | luciferase per cell, z-score | viable cells, % of control | Call |
| --- | --- | --- | --- | --- | --- | --- |
| AGAP11 (ArfGAP with GTPase domain, ankyrin repeat and PH domain 11) | 1 | -0.245 | 77 | -0.366 | 94.8 | inactive |
| AGAP11 (ArfGAP with GTPase domain, ankyrin repeat and PH domain 11) | 2 | 0.471 | 91.3 | 0.0582 | 100 | inactive |
| AGAP11 (ArfGAP with GTPase domain, ankyrin repeat and PH domain 11) | 3 | 0.867 | 99.1 | 1.07 | 83.6 | inactive |
| RAB11FIP3 (RAB11 family interacting protein 3) | 1 | 0.0594 | 83.1 | -0.123 | 95.9 | inactive |
| RAB11FIP3 (RAB11 family interacting protein 3) | 2 | -0.525 | 71.4 | -0.367 | 87.9 | inactive |
| RAB11FIP3 (RAB11 family interacting protein 3) | 3 | -1.09 | 60.1 | -1.51 | 99.8 | inactive |
| OR51D1 (olfactory receptor family 51 subfamily D member 1) | 1 | 1.74 | 117 | 1.88 | 79.3 | inactive |
| OR51D1 (olfactory receptor family 51 subfamily D member 1) | 2 | 0.178 | 85.4 | 0.11 | 92.7 | inactive |
| OR51D1 (olfactory receptor family 51 subfamily D member 1) | 3 | 0.609 | 94 | 0.43 | 93.8 | inactive |
| H3P44 (H3 histone pseudogene 44) | 1 | 1.34 | 108 | 0.574 | 104 | inactive |
| H3P44 (H3 histone pseudogene 44) | 2 | 0.481 | 91.5 | 0.729 | 84.3 | inactive |
| H3P44 (H3 histone pseudogene 44) | 3 | 0.288 | 87.6 | 0.425 | 87.6 | inactive |
| CATSPER3 (cation channel sperm associated 3) | 1 | 0.699 | 95.8 | 0.563 | 92.3 | inactive |
| CATSPER3 (cation channel sperm associated 3) | 2 | 1.68 | 115 | 0.943 | 100 | inactive |
| CATSPER3 (cation channel sperm associated 3) | 3 | -0.475 | 72.4 | -0.581 | 94.3 | inactive |
| B9D1 (B9 domain containing 1) | 1 | -0.748 | 67 | -0.354 | 82.2 | inactive |
| B9D1 (B9 domain containing 1) | 2 | -0.95 | 63 | 0.371 | 63.8 | inactive |
| B9D1 (B9 domain containing 1) | 3 | -1.13 | 59.4 | 0.512 | 58 | inactive |
| PLCH2 (phospholipase C eta 2) | 1 | 1.05 | 103 | 0.708 | 95.3 | inactive |
| PLCH2 (phospholipase C eta 2) | 2 | 1.73 | 116 | 1.36 | 90.7 | inactive |
| PLCH2 (phospholipase C eta 2) | 3 | 0.0126 | 82.1 | -0.681 | 110 | inactive |
| HDAC9 (histone deacetylase 9) | 1 | -1.04 | 61.2 | -0.778 | 83.9 | inactive |
| HDAC9 (histone deacetylase 9) | 2 | 0.036 | 82.6 | 1.15 | 68.2 | inactive |
| HDAC9 (histone deacetylase 9) | 3 | 2.99 | 141 | 2.49 | 82 | inactive |
| COA6 (cytochrome c oxidase assembly factor 6) | 1 | -0.39 | 74.1 | -0.191 | 87.1 | inactive |
| COA6 (cytochrome c oxidase assembly factor 6) | 2 | 1.67 | 115 | 0.571 | 111 | inactive |
| COA6 (cytochrome c oxidase assembly factor 6) | 3 | 0.423 | 90.3 | 0.506 | 88.3 | inactive |
| CGRRF1 (cell growth regulator with ring finger domain 1) | 1 | 0.265 | 87.2 | -0.0343 | 98.3 | inactive |
| CGRRF1 (cell growth regulator with ring finger domain 1) | 2 | -2.49 | 32.5 | -2.64 | 72.6 | inactive |
| CGRRF1 (cell growth regulator with ring finger domain 1) | 3 | 0.0352 | 82.6 | 0.069 | 90.6 | inactive |
| NDUFV1 (NADH:ubiquinone oxidoreductase core subunit V1) | 1 | -0.359 | 74.7 | -0.378 | 92.3 | inactive |
| NDUFV1 (NADH:ubiquinone oxidoreductase core subunit V1) | 2 | -0.175 | 78.4 | 0.524 | 76.3 | inactive |
| NDUFV1 (NADH:ubiquinone oxidoreductase core subunit V1) | 3 | 0.0276 | 82.4 | -0.431 | 103 | inactive |
